This series can be described thus: Chemical reactivity with MTT (without cells). Particulars: 4 h at 37 °C, DMEM:F12 without cells.

Structures are written as SMILES. Some entries repeat one wording, which the source may state once for all of them.

Data on four molecules can be found in PMC8533176, “1,5-Benzodiazepin-2(3H)-ones: In Vitro Evaluation as Antiparkinsonian Agents” (Antioxidants, 2021).

Regarding `O=C1CC(c2ccccc2)=Nc2ccc(F)cc2N1` [Compound 11, 8-Fluoro-4-phenyl-1H-1,5-benzodiazepin-2(3H)-one], the “Reaction with MTT” value is “No significant reaction was detected”.
As for `O=C1CC(c2ccccc2)=Nc2cc(F)ccc2N1` [Compound 13, 7-Fluoro-4-phenyl-H-1,5-benzodiazepin-2(3H)-one], the entry is “No significant reaction was detected”; as for `O=C1CC(c2ccccc2)=Nc2ccccc2N1` [Compound 18, 4-Phenyl-1H-1,5-benzodiazepin-2(3H)-one], “No significant reaction was detected”; as for `O=C1CC(c2ccccc2)=Nc2cc(F)c(F)cc2N1` [Compound 9, 7,8-Difluoro-4-phenyl-1H-1,5-benzodiazepin-2(3H)-one], “No significant reaction was detected”.
